Article PMC8357487 (Current Research in Pharmacology and Drug Discovery, 2021)

Assay: Cytotoxicity, MTS method, Vero CCL-81
Format: cell-based
Settings: African monkey, Vero CCL-81 cells

CCC(CC)COC(=O)[C@H](C)N[P@](=O)(OC[C@H]1O[C@@](C#N)(c2ccc3c(N)ncnn23)[C@H](O)[C@@H]1O)Oc1ccccc1 [Remdesivir]
CC50: > 100 µM
